The whole screen tested about 300,000 compounds, of which about 5,400 (1.8%) were called active. Inconclusive means that the source gave no clear call. Such entries were picked first, then a sample of the others. The call rests on the fitted dose curve; tested in HEK293 cells. Potencies of inconclusive entries are doubtful fits and often do not repeat.
Test: qHTS for inhibitors of binding or entry into cells for Marburg Virus
Conditions: Marburg virus pseudotyped entry inhibition, cell reporter; activity change, negative = inhibition: at 37.8 µM (top of the series) unless noted
In the case of `Nc1nc(NCCO)nc(NCc2ccccc2)c1[N+](=O)[O-]`, the Potency is reported as inconclusive: 1.58 µM [inhibitor, partial curve, poor fit]. For `Cc1csc(NC(=O)CSc2ccc(-c3ccccc3)nn2)n1`, the Potency was inconclusive: 12.6 µM [inhibitor, partial curve, poor fit]. With `Cc1ccc2sc(-c3ccc(NC(=O)CCN4C(=O)c5ccccc5C4=O)cc3)nc2c1` the “activity change, negative = inhibition” value was inactive: 0.718%. In the case of `O=C(Oc1ccc(C(=S)N2CCCCC2)cc1)c1ccccc1`, the Potency is reported as inconclusive: 3.98 µM [activator, single point]. With `CC(=O)Oc1ccc(C(=O)Nc2cc(NC(=O)c3ccc(OC(C)=O)cc3)cc(C(=O)NC(C)(C)C)c2)cc1` the “activity change, negative = inhibition” value was inactive: -10.9%. For `COC1CCC(OC2CC(C3(C)CCC4(CC(O)C(C)C(C(C)/C=C(\C)C(=O)C(C)CC(C)C(=O)O)O4)O3)OC3(OC(C4OC(O)(CO)C(C)CC4C)CC3C)C2C)OC1C` (configuration not stated), the Potency was inconclusive: 0.0891 µM [inhibitor, full curve, poor fit]. In the case of `CC(NC(=O)Nc1ccccc1C(F)(F)F)c1c(-n2cccc2)sc2c1CCCC2` (configuration not stated), the “activity change, negative = inhibition” value is reported as inactive: -22.7% [at 46.1 µM]. With `CCN(CC)CCOc1nnc(-c2ccc(C)cc2)c2ccccc12` the Potency was inconclusive: 17.8 µM [inhibitor, single point]. For `CC1(C)CC(NCc2ccc3c(c2)OCO3)CCO1` (configuration not stated), the “activity change, negative = inhibition” value was inactive: 8.82% [at 46.1 µM]. With `CCOc1ccc(C(C(=O)NCC2CCCO2)N(C(=O)c2snc(C(N)=O)c2N)c2ccc3c(c2)OCCO3)cc1` (configuration not stated) the Potency was inconclusive: 12.6 µM [inhibitor, partial curve, poor fit]. In the case of `CCN1CCN(CCNC(=O)CCCn2nc(C)c3c(C)n(-c4ccc(C)cc4)nc3c2=O)CC1`, the Potency is reported as inconclusive: 3.16 µM [inhibitor, single point]. For `O=C(NCCN1CCN(C(=O)c2cccc(Br)c2)CC1)C(=O)Nc1ccc(Br)cc1`, the Potency was inconclusive: 7.08 µM [inhibitor, partial curve, poor fit]. For `Cc1cc(C)nc(NS(=O)(=O)c2ccc(NS(=O)(=O)c3ccccc3)cc2)n1`, the Potency was inconclusive: 32.6 µM [activator, partial curve, poor fit]. With `COc1ccc(C(C(=O)NC(C)(C)C)N(CCC(C)C)C(=O)CCC(=O)Nc2cc(C)on2)cc1` (configuration not stated) the Potency was inconclusive: 35.5 µM [inhibitor, single point]. With `COC(=O)c1cccc(NC(=O)CSc2nc3cccnc3n2C)c1` the Potency was inconclusive: 35.5 µM [inhibitor, partial curve, poor fit]. For `CCN(CCC(=O)Nc1cc(OC)cc(OC)c1)Cc1ccccc1`, the Potency was inconclusive: 29.1 µM [inhibitor, single point]. With `COc1ccc(N(CC(=O)NCc2cccs2)S(=O)(=O)c2c(C)n[nH]c2C)cc1` the Potency was “inactive”. In the case of `CC1=CN2C(=N)/C(=C/c3ccc([N+](=O)[O-])o3)C(=O)N=C2S1`, the Potency is reported as inconclusive: 35.5 µM [inhibitor, single point]. For `COc1cccc(OCCNC(=O)c2ccccc2Sc2ccccc2C#N)c1`, the Potency was inconclusive: 10 µM [inhibitor, partial curve]. In the case of `O=[N+]([O-])c1cnc2ccccc2c1`, the Potency is reported as inconclusive: 0.0184 µM [inhibitor, full curve, poor fit]. In the case of `COc1ccc(CCc2nnc(CCC(=O)N(C)Cc3ccnc4ccccc34)o2)cc1`, the Potency is reported as inconclusive: 7.08 µM [inhibitor, full curve, poor fit]. For `CN(C)S(=O)(=O)c1ccc(Cl)c(C(=O)NNC(=O)Cn2ccc(C(F)(F)F)n2)c1`, the “activity change, negative = inhibition” value was inactive: -18.4%. With `Cc1cccc(NC(=O)/C=C/c2ccc3c(c2)OCO3)n1` the Potency was active: 6.51 µM. In the case of `CCC(Sc1nnc(-c2ccc(C)c(Cl)c2)n1CC)C(=O)Nc1nccs1` (configuration not stated), the Potency is reported as inconclusive: 14.6 µM [inhibitor, partial curve, poor fit]. For `O=C(CC12CC3CC(CC(Br)(C3)C1)C2)NC1CCCC1`, the “activity change, negative = inhibition” value was inactive: 3.47% [at 46.1 µM]. For `Cc1c(C(=O)O)cccc1-c1ccc(/C=N/n2cnnc2)o1`, the “activity change, negative = inhibition” value was inactive: 3.46% [at 46.1 µM]. In the case of `CCn1cc(/C=C/C(=O)c2ccc(O)cc2)c(C)n1`, the Potency is reported as inconclusive: 1.58 µM [inhibitor, full curve, poor fit]. In the case of `COc1ccc(C(=O)NC(=S)Nc2ccc([N+](=O)[O-])cc2C)cc1OC`, the “activity change, negative = inhibition” value is reported as inactive: -18.5%. In the case of `CCOc1ccccc1NC(=O)Nc1nnc(N2CCCCCC2)s1`, the Potency is reported as inconclusive: 35.5 µM [activator, partial curve, poor fit]. With `O=C(O)CCCNC(=O)/C=C/c1ccco1` the “activity change, negative = inhibition” value was inactive: 13% [at 46.1 µM]. With `Cc1cc([N+](=O)[O-])nn1CC(=O)N/N=C/c1ccccc1F` the “activity change, negative = inhibition” value was inactive: 1.07%. With `Cc1ccc(CNC(=O)CN(C(=O)C2(C)CC(=O)N=C3C=CC=CN32)c2ccc(F)cc2)cc1` (configuration not stated) the “activity change, negative = inhibition” value was inactive: 0.722% [at 46.1 µM]. In the case of `CS(=O)(=O)N1CCC(C(=O)NCCC2=CCCCC2)CC1`, the Potency is reported as inconclusive: 29.1 µM [activator, single point]. In the case of `CC(=O)c1ccc(N2CCCC2)c(F)c1`, the “activity change, negative = inhibition” value is reported as inactive: 2.15%. With `COc1ccccc1C(=O)COC(=O)/C(=C/c1ccccc1)NC(C)=O` the “activity change, negative = inhibition” value was inactive: 9.13%. With `O=C(c1ccccc1)C1C(c2ccccc2)C1[N+](=O)[O-]` (configuration not stated) the Potency was inconclusive: 35.5 µM [inhibitor, single point]. For `COC(=O)c1ccc2c(=O)n(CCCN3CCCC3=O)c(=S)[nH]c2c1`, the “activity change, negative = inhibition” value was inactive: 8.67%. With `CN1c2ccccc2C(C)(C)C12CC(c1ccc(Cl)c(S(=O)(=O)N3CCCC3)c1)=NO2` (configuration not stated) the “activity change, negative = inhibition” value was inactive: 22.3%. In the case of `COc1ccc(/C=N/NC(=O)C2C3CCCCC32)cc1OC` (configuration not stated), the Potency is reported as inconclusive: 0.316 µM [inhibitor, full curve, poor fit]. In the case of `CCOC(=O)C(CC)/C(C)=N\NC(=O)c1ccccc1O` (configuration not stated), the Potency is reported as inconclusive: 2.51 µM [inhibitor, partial curve, poor fit]. For `Cc1cc2oc3c(c(=O)c2cc1C)C(c1ccc(C(C)C)cc1)N(CCCN1CCOCC1)C3=O` (configuration not stated), the Potency was inconclusive: 6.51 µM [inhibitor, partial curve, poor fit]. With `COc1ccc2c(c1OC)C(=O)OC2Nc1nc(-c2ccc(-c3ccccc3)cc2)cs1` (configuration not stated) the “activity change, negative = inhibition” value was inactive: -37.5%. In the case of `O=C(O)/C=C/C(=O)N1CCN(S(=O)(=O)c2cc(C(F)(F)F)ccc2Cl)CC1`, the Potency is reported as inconclusive: 0.562 µM [activator, full curve, poor fit]. In the case of `Cc1[nH][nH]c(=O)c1N=Nc1ccc(Br)c(Cl)c1`, the “activity change, negative = inhibition” value is reported as inactive: 12.4% [at 46.1 µM]. For `CCOc1ccc(NC(=O)Nc2ccc3nccnc3c2)cc1`, the Potency was inconclusive: 35.5 µM [inhibitor, single point]. For `O=C(Nc1ccc(Br)cn1)c1cccc(C(=O)Nc2ccc(Br)cn2)c1`, the Potency was inconclusive: 2.51 µM [inhibitor, full curve, poor fit]. For `Cc1ccc(-c2cc(C(=O)Nc3ccccc3C(N)=O)c3ccccc3n2)o1`, the Potency was inconclusive: 10 µM [inhibitor, partial curve, poor fit]. With `Cc1noc(C)c1CCC(=O)N1CCCC(CO)(Cc2ccccc2)C1` (configuration not stated) the Potency was inconclusive: 1.78 µM [activator, partial curve, poor fit]. With `Cc1occc1C(=O)NNC(=O)c1ccccc1C(=O)O` the Potency was inconclusive: 5.01 µM [activator, full curve, poor fit]. For `COc1ccc([N+](=O)[O-])cc1NC(=S)NC(NC(=O)Cc1ccc(OC)c(OC)c1)C(Cl)(Cl)Cl` (configuration not stated), the Potency was inconclusive: 4.61 µM [inhibitor, single point]. In the case of `CCOc1ccc(CC(=O)N2CCN=C2SCc2ccc([N+](=O)[O-])cc2)cc1`, the Potency is reported as inconclusive: 20 µM [inhibitor, single point]. For `COc1ccc(C(=O)Oc2cc(C)[nH]c(=O)c2[N+](=O)[O-])cc1`, the “activity change, negative = inhibition” value was inactive: 15.7%. For `CC(C)Cn1ccc(=O)n(CC(C)C)c1=O`, the Potency was inconclusive: 3.16 µM [activator, partial curve, poor fit]. In the case of `CCn1c(COc2ccc(=O)n(-c3ccccc3)n2)nnc1SCc1ccc(OC)cc1`, the Potency is reported as inconclusive: 1.64 µM [activator, partial curve, poor fit]. With `CC(C)COCC(O)CCC(=O)NNC(=S)Nc1ccccc1` (configuration not stated) the “activity change, negative = inhibition” value was inactive: 8.05%. In the case of `Cc1ccc(S(=O)(=O)N2CC3(C)CN(S(=O)(=O)c4ccc(C)cc4)CC(C)(C2)C3=O)cc1`, the Potency is reported as inconclusive: 32.6 µM [activator, partial curve, poor fit]. In the case of `C/C(=N\NC(=O)c1ccc(CSc2nncn2C)cc1)c1cccs1`, the Potency is reported as inconclusive: 17.8 µM [activator, partial curve, poor fit]. In the case of `COc1cccc(C(=O)C2CCCN(Cc3cn(CC(N)=O)c4ccccc34)C2)c1` (configuration not stated), the Potency is reported as inconclusive: 10 µM [inhibitor, partial curve, poor fit]. For `Cn1nc(CC(=O)NC2CCCCC2)c2ccccc2c1=O`, the “activity change, negative = inhibition” value was inactive: -24.8%. In the case of `CCCCNC(=O)N(O)C1N(/N=C/c2cccs2)C(=S)SC1(C)C` (configuration not stated), the Potency is reported as inconclusive: 35.5 µM [inhibitor, single point]. In the case of `Cc1cc2cc(C=C(C#N)C#N)c(Cl)nc2cc1C`, the Potency is reported as inconclusive: 0.178 µM [activator, full curve, poor fit]. With `CCCC(=O)Nc1nnc(SCC(=O)Nc2nc(C)cs2)s1` the “activity change, negative = inhibition” value was inactive: -0.167%. In the case of `Cc1c(C(=O)Nc2ccc3c(c2)OCO3)oc2ccccc12`, the Potency is reported as inconclusive: 25.1 µM [inhibitor, single point]. For `O=C(NNC(=O)c1cnccn1)c1ccc(Cl)cc1`, the Potency was inconclusive: 3.55 µM [activator, partial curve, poor fit]. With `CC(=O)Cc1nsc(NC(=O)c2ccc(-c3cc(C(F)(F)F)ccc3Cl)o2)n1` the Potency was “inactive”. In the case of `O=C(c1ccc(COc2ccccc2Cl)o1)N1CCCC1`, the “activity change, negative = inhibition” value is reported as inactive: -12.1% [at 46.1 µM]. In the case of `Cc1cc2c(OCC(O)CNC3CCCCC3)cccc2[nH]1` (configuration not stated), the Potency is reported as inconclusive: 35.5 µM [inhibitor, single point].

Reference: PubChem BioAssay AID540276 (National Center for Advancing Translational Sciences (NCATS), 2011)
On the % scale 0 is the no-effect control and ±100 the full control effect; potency means the concentration at half of the fitted maximal effect.
